Experimental data as given in article PMC5646864.
No constants are given. Whether binding was seen depends on the method and setting. Some entries that bind do so weakly or less than the wild type.

T1: Escherichia coli CsdE (Escherichia coli), P0AGF2
T1 chain: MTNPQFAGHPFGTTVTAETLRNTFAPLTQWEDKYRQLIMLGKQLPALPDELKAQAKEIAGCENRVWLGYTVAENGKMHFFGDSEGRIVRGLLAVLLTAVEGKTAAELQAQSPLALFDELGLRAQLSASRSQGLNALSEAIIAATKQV

B1: Escherichia coli CsdE, P0AGF2 1-147 (natural protein)
chain: T1 chain
B2: Escherichia coli CsdE (protein, UniProt P0AGF2 1-147)
chain: T1 chain

Tests used:
[1] = biological target: T1, Escherichia coli CsdE (Escherichia …); assay: crystal structure; native CsdE at 40 mg/ml in 10 mM Tris-HCl pH 8, 2 mM 2-mercaptoethanol; crystallised in 0.1 M sodium citrate pH 6.5, 20% (w/v) PEG-MME 2000 at 297 K; two monomers in the asymmetric unit joined by a Cys61-Cys61 disulfide bridge; phased by Se-SAD on SeMet crystals; both purified; conditions: remark: other sources report otherwise
[2] = biological target: Escherichia coli CsdE (Escherichia coli) (UniProt P0AGF2); assay: condition: only with excess reducing agent in the protein stock; SEC; gel filtration of the CsdE protein stock with excess reducing agent; both purified

Binder	binding [1]	binding [2]
B1	binds	–
B2	–	no binding
